Results are given in words; binding and its absence hold for the method and conditions named. In cells and extracts the contact can be indirect. Some entries that bind do so weakly or less than the wild type. Values belong to the substance of their own block, whether it stands above or below them.
How the values were obtained:
[1] = molecular target: V5-SMAD4 (Sma Mothers Against Decapentaplegia homologue 4), expressed in 293T cells (human (cDNA of HEK293T cells)) (UniProt Q13485); experiment: co-IP; 293T cells co-transfected with pLVET-Flag-GATA2 and pLVET-V5-SMAD4, 48 h; nondenaturing lysis buffer (50 mM Tris-HCl pH 8.0, 150 mM NaCl, 1 mM EDTA, 10% glycerol); anti-Flag or anti-V5 antibody at 4 °C overnight, protein G agarose beads, western blot
GST-SMAD4 = GST-SMAD4 (UniProt Q13485); experiment: pull-down; GST-SMAD4 from BL21 immobilised on glutathione agarose resin (4 °C, 2 h) and washed; 1F5 lysate with Flag-GATA2 added with or without 250 units/ml Benzonase, 4 °C, 14 h; eluted with glutathione, western blot; only the target purified
[2] = molecular target: Flag-GATA2 (endothelial transcription factor GATA-2), expressed in 293T cells (human (cDNA of HEK293T cells)) (UniProt P23769); experiment: co-IP; 293T cells co-transfected with pLVET-Flag-GATA2 and pLVET-V5-SMAD4, 48 h; nondenaturing lysis buffer (50 mM Tris-HCl pH 8.0, 150 mM NaCl, 1 mM EDTA, 10% glycerol); anti-Flag or anti-V5 antibody at 4 °C overnight, protein G agarose beads, western blot
[3] = molecular target: endogenous GATA2 of LNCaP cells (human (endogenous in LNCaP)) (UniProt P23769); experiment: co-IP; endogenous proteins, LNCaP cell lysate in nondenaturing lysis buffer; protein G agarose beads, western blot

Sequences of proteins named here, by UniProt entry; tags and fusion partners are left off.
UniProt Q13485: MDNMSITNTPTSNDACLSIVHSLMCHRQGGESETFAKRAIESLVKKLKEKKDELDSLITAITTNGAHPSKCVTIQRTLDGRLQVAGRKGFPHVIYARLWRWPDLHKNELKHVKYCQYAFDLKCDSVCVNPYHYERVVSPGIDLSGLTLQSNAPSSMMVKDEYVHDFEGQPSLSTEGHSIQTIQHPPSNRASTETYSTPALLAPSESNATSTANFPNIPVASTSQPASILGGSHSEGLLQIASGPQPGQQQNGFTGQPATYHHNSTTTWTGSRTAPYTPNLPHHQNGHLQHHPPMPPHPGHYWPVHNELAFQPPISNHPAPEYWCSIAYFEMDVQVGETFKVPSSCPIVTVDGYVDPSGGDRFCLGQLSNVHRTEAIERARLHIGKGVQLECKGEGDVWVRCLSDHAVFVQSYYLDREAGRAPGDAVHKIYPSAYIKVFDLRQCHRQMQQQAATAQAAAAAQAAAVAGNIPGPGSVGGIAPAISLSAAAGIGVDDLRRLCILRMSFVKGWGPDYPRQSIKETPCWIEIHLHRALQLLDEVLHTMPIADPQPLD
UniProt P23769: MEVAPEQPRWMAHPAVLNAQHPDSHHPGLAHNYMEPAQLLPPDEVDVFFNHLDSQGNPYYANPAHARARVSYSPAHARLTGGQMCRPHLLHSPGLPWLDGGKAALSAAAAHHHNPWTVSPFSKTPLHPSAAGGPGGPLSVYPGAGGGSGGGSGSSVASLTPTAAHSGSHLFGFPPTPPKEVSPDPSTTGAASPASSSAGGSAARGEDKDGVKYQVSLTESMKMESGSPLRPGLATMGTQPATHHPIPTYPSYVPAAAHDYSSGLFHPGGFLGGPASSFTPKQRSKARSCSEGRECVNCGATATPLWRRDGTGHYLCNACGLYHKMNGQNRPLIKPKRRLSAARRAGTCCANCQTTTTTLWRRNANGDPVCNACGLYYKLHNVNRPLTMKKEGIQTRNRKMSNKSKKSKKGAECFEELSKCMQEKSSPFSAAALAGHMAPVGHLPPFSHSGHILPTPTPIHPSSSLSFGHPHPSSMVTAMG

binding [1]: binds
Substance: Flag-GATA2 (endothelial transcription factor GATA-2), expressed in 293T cells (from UniProt P23769 1-480)

binding (GST-SMAD4): binds
Substance: Flag-GATA2 from 1F5 cells stably overexpressing flag-GATA2 (from UniProt P23769 1-480)

binding [2]: binds
Substance: V5-SMAD4 (Sma Mothers Against Decapentaplegia homologue 4), expressed in 293T cells (from UniProt Q13485 1-552)

binding [3]: binds
Substance: endogenous SMAD4 of LNCaP cells (from UniProt Q13485 1-552)

From PMC10408074
